Measurements: patent US20230082968A1, “EXOGENOUS NITRIC OXIDE FOR IMPROVED SUSCEPTIBILITY AND LOWERED ANTIBIOTIC RESISTANCE IN RESISTANT RESPIRATORY BACTERIA” (The University of North Carolina at Chapel Hill, priority 2020, published 2023)
Some of these results come from one statement about several compounds together.

Experiments:
PAK [1] = test: Nitric oxide pretreatment with planktonic bacteria; assay type: cell-based, Pseudomonas aeruginosa; conditions: 4 h exposure to COS/NO at 25% of the MIC prior to antibiotic
Experimental: After exposure, wells were serially diluted in sterile MilliQ water and spiral plated on TSA. Viability was assessed by colony counting.

PAK [2] = test: 24 h combination time kill assay; assay type: cell-based, Pseudomonas aeruginosa; conditions: antibiotic combined with COS/NO at respective MIC

C[C@@H](O)[C@H]1C(=O)N2C(C(=O)O)=C(S[C@@H]3CN[C@H](C(=O)N(C)C)C3)[C@H](C)[C@H]12 [Meropenem]
PAK susceptibility to antibiotic, decrease with NO-pretreatment compared to without (PAK [1]): 3- to 5 log

NC[C@H]1O[C@H](O[C@H]2[C@H](O)[C@@H](O[C@H]3O[C@H](CO)[C@@H](O)[C@H](N)[C@H]3O)[C@H](N)C[C@@H]2N)[C@H](N)C[C@@H]1O [Tobramycin]
decrease in viability compared to the most active single agent (PAK [2]): ≥ 2 log | PAK susceptibility to antibiotic, decrease with NO-pretreatment compared to without (PAK [1]): 3- to 5 log

Colistin
decrease in viability compared to the most active single agent (PAK [2]): ≥ 2 log | PAK susceptibility to antibiotic, decrease with NO-pretreatment compared to without (PAK [1]): 3- to 5 log
